The record followed here is article PMC9418182.

These are yes or no findings as the source states them, for the method shown. Binding seen in cells or lysates may run through a third protein. Some results given as binding are weak or reduced against the parent protein; the word gives no strength. For part of these data: Sequences can lack the tags named with a protein.

In test [1] the target is T1, PERM1 (endogenous, mouse heart) (mouse (endogenous in mouse heart)) (UniProt Q149B8).
T1 sequence: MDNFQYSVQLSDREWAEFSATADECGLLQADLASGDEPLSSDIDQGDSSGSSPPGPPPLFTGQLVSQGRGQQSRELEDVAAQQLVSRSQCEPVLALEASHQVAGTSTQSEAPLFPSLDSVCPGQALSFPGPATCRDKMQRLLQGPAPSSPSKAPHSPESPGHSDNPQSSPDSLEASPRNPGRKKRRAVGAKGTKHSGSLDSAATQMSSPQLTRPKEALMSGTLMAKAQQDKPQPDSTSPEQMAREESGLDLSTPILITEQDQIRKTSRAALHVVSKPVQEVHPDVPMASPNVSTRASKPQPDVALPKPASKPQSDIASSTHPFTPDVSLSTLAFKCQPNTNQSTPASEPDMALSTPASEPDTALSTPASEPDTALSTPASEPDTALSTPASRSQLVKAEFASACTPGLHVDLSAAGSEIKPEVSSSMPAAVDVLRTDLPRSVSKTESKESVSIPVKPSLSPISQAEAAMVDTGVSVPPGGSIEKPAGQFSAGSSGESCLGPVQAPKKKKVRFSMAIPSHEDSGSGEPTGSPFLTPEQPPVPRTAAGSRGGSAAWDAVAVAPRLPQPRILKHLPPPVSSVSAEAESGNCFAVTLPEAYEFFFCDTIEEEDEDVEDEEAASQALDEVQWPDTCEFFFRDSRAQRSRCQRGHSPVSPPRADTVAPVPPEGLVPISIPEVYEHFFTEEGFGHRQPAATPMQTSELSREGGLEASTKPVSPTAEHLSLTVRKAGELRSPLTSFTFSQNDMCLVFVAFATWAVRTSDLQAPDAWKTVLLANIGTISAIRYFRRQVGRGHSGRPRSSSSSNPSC
The test is described as follows: co-IP; mouse heart lysate; precipitated with anti-PERM1 antibody or control IgG overnight at 4 °C, Protein A/G-Agarose; immunoblot for PGC-1α.

The target in test [2] is T2, Flag-PERM1 (PGC-1/ERR-induced regulator in muscle 1) (mouse) (UniProt Q149B8).
T2 sequence: T1 sequence
The test is described as follows: co-IP; neonatal rat ventricular cardiomyocytes transduced with Flag-PERM1 adenovirus for one day; precipitated with anti-Flag M2 affinity gel overnight at 4 °C; immunoblot for PPARα or PGC-1α.

B1: PGC-1α (endogenous, mouse heart) (protein, UniProt O70343 1-797)
chain: MAWDMCSQDSVWSDIECAALVGEDQPLCPDLPELDLSELDVNDLDTDSFLGGLKWCSDQSEIISNQYNNEPANIFEKIDEENEANLLAVLTETLDSLPVDEDGLPSFDALTDGAVTTDNEASPSSMPDGTPPPQEAEEPSLLKKLLLAPANTQLSYNECSGLSTQNHAANHTHRIRTNPAIVKTENSWSNKAKSICQQQKPQRRPCSELLKYLTTNDDPPHTKPTENRNSSRDKCASKKKSHTQPQSQHAQAKPTTLSLPLTPESPNDPKGSPFENKTIERTLSVELSGTAGLTPPTTPPHKANQDNPFKASPKLKPSCKTVVPPPTKRARYSECSGTQGSHSTKKGPEQSELYAQLSKSSGLSRGHEERKTKRPSLRLFGDHDYCQSLNSKTDILINISQELQDSRQLDFKDASCDWQGHICSSTDSGQCYLRETLEASKQVSPCSTRKQLQDQEIRAELNKHFGHPCQAVFDDKSDKTSELRDGDFSNEQFSKLPVFINSGLAMDGLFDDSEDESDKLSYPWDGTQPYSLFDVSPSCSSFNSPCRDSVSPPKSLFSQRPQRMRSRSRSFSRHRSCSRSPYSRSRSRSPGSRSSSRSCYYYESSHYRHRTHRNSPLYVRSRSRSPYSRRPRYDSYEAYEHERLKRDEYRKEHEKRESERAKQRERQKQKAIEERRVIYVGKIRPDTTRTELRDRFEVFGEIEECTVNLRDDGDSYGFITYRYTCDAFAALENGYTLRRSNETDFELYFCGRKQFFKSNYADLDTNSDDFDPASTKSKYDSLDFDSLLKEAQRSLRR
As to B1, in test [1], the binding entry is reported as “binds”.

B2: PGC-1α (endogenous, neonatal rat ventricular cardiomyocytes) (protein, UniProt Q9QYK2 1-796)
chain: MAWDMCSQDSVWSDIECAALVGEDQPLCPDLPELDLSELDVNDLDTDSFLGGLKWCSDQSEIISNQYNNEPANIFEKIDEENEANLLAVLTETLDSLPVDEDGLPSFDALTDGDVTTDNEASPSSMPDGTPPPQEAEEPSLLKKLLLAPANTQLSYNECSGLSTQNHANHTHRIRTNPAIVKTENSWSNKAKSICQQQKPQRRPCSELLKYLTTNDDPPHTKPTENRNSSRDKCASKKKSHTQPQSQHAQAKPTTLSLPLTPESPNDPKGSPFENKTIERTLSVELSGTAGLTPPTTPPHKANQDNPFKASPKLKPSCKTVVPPPTKRARYSECSGTQGSHSTKKGPEQSELYAQLSKSSVLSRGHEERKTKRPSLRLFGDHDYCQSVNSKTDILINISQELQDSRQLDFKDASCDWQGHICSSTDSSQCYLRETLEASKQVSPCSTRKQLQDQEIRAELNKHFGHPSQAVFDDKVDKTSELRDGNFSNEQFSKLPVFINSGLAMDGLFDDSEDENDKLSYPWDGTQSYSLFDVSPSCSSFNSPCRDSVSPPKSLFSQRPQRMRSRSRSFSRHRSCSRSPYSRSRSRSPGSRSSSRSCYYYESSHYRHRTHRNSPLYVRSRSRSPYSRRPRYDSYEANEHERLKRDEYRREYEKRESERAKQRERQKQKAIEERRVIYVGKIRPDTTRTELRDRFEVFGEIEECTVNLRDDGDSYGFITYRYTCDAFAALENGYTLRRSNETDFELYFCGRKQFFKSNYADLDSNSDDFDPASTKSKYDSLDFDSLLKEAQRSLRR
Consider B2, for which the binding entry in test [2] is “binds”.

B3: PPARα (endogenous, neonatal rat ventricular cardiomyocytes) (protein, UniProt P37230 1-468)
chain: MVDTESPICPLSPLEADDLESPLSEEFLQEMGNIQEISQSLGEESSGSFSFADYQYLGSCPGSEGSVITDTLSPASSPSSVSCPAVPTSTDESPGNALNIECRICGDKASGYHYGVHACEGCKGFFRRTIRLKLAYDKCDRSCKIQKKNRNKCQYCRFHKCLSVGMSHNAIRFGRMPRSEKAKLKAEILTCEHDLKDSETADLKSLAKRIHEAYLKNFNMNKVKARVILAGKTSNNPPFVIHDMETLCMAEKTLVAKMVANGVENKEAEVRFFHCCQCMSVETVTELTEFAKAIPGFANLDLNDQVTLLKYGVYEAIFTMLSSLMNKDGMLIAYGNGFITREFLKNLRKPFCDIMEPKFDFAMKFNALELDDSDISLFVAAIICCGDRPGLLNIGYIEKLQEGIVHVLKLHLQSNHPDDTFLFPKLLQKMVDLRQLVTEHAQLVQVIKKTESDAALHPLLQEIYRDMY
Take B3: the binding entry in test [2] is listed as “binds”.
